# In all, about 33,000 sequences were measured (“E-score (-0.5 to 0.5)”: median about -0.015, highest 2% from about 0.3 on). The list shows a part of the results.
# Target: T1, Abf1 (UniProt P14164)
# T1 sequence: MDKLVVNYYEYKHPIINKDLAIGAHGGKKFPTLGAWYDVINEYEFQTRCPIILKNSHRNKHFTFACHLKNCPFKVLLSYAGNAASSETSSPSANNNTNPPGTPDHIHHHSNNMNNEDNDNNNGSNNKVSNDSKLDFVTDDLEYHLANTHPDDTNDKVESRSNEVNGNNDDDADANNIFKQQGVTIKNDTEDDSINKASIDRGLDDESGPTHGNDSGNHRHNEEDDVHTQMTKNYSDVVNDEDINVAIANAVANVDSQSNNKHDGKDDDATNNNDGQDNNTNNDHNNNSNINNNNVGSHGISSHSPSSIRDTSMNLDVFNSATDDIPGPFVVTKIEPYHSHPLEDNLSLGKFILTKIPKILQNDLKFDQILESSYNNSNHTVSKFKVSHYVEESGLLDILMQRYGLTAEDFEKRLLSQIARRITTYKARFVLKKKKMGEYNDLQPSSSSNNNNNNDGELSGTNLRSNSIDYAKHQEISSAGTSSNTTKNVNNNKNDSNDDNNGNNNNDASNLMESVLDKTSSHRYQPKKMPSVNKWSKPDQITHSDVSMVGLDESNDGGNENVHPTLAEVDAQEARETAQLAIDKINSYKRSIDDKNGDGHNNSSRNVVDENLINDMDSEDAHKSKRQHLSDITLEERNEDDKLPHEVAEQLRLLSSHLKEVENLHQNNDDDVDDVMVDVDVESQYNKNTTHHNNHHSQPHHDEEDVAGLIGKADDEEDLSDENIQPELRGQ
# Test: PBM E-score (8-mer binding enrichment) (E-score (-0.5 to 0.5)); higher = stronger / more preferred TF binding
# Conditions: protein concentration: 200 nM; construct: GST-full length
# Protocol: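 Universal 'all 10-mer' protein binding microarrays (Agilent AMADID 015681) probed with GST-tagged S. cerevisiae TFs (full-length or DBD) made by in vitro transcription/translation (PURExpress), about 100-200 nM. Bound TF was detected with fluorescent anti-GST. Each ungapped 8-mer (which stands for itself and its reverse complement) is scored by the PBM enrichment score (E-score), a modified Wilcoxon-Mann-Whitney statistic from -0.5 to +0.5, computed with the Universal PBM Analysis Suite. Scale: above 0.35 generally sequence-specific binding.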
row,Sequence,PBM E-score
1,GATACTTA,0.157
2,CCAATCGA,-0.00987
3,AGCAGCTA,0.0153
4,GACACCGA,0.0438
5,AACATAAG,0.00727
6,CACTCAGG,-0.15
7,AACCCACC,0.00672
8,CTCTTCAA,-0.162
9,ACGAACTA,0.266
10,ACTAATAG,0.0504
11,TCGGTCCA,-0.0605
12,ATGGCGAC,-0.0407
13,GTACTGTA,-0.0824
14,AAACTGAC,-0.164
15,GATTTTCC,-0.0479
16,AAACACAG,-0.0396
17,CCCGTTAC,0.028
18,TCGTCAAA,0.233
19,AGCGAAGA,-0.0102
20,AAGCTCCG,-0.0781
21,CTACGGTA,0.138
22,CGGGGTGC,-0.252
23,AAACTGCT,-0.00508
24,GAGATGTA,0.118
25,CTGCTGTA,-0.0677

row,Sequence,PBM E-score
1,GAAGAAGA,0.101
2,CCTGCTTA,-0.0442
3,CTTGTTAA,-0.072
4,AACTGCCT,0.0853
5,ATCCCCTC,0.00375
6,CGTACGAA,0.447
7,AAACTGTC,0.0845
8,AAGGGTTG,0.0233
9,CTCGCATA,-0.0654
10,ACTAGTCA,-0.0738
11,ATACAGAT,0.124
12,GTGCCAAA,0.121
13,CCCGATAC,-0.0131
14,CCGGCCCA,-0.227
15,CTACGAAC,0.275
16,AAGTTACC,0.146
17,AAATATCA,0.376
18,TCTGAACA,0.0535
19,GAAACGTC,0.0902
20,CTATTAGA,-0.0837
21,CCAATAGG,-0.13
22,ATGGTCTA,-0.221
23,GTTAATTA,0.247
24,CTTTAACA,0.119
25,AGAGTGAT,0.387

# An excerpt of these results, bar-delimited.
row | Sequence | PBM E-score
10 | ACTAGTCA | -0.0738
11 | ATACAGAT | 0.124
12 | GTGCCAAA | 0.121

# The results go on:

row,Sequence,PBM E-score
1,CGCGGCGA,-0.0396
2,AACGGACG,0.065
3,AGCCGGGA,-0.0729
4,ACGGTTCT,0.0581
5,ATGTCAGC,0.0322
6,ATGTTCTC,-0.0935
7,CTACTTTC,0.192
8,AAAATAAA,0.0577
9,CGGTCGAC,0.0163
10,GTGTGCGA,-0.0531
11,GTTGAGGA,-0.106
12,AGTTATGA,0.0705
13,ATCGAGTA,-0.086
14,TCCACTCA,-0.148
15,CTTTGTGC,0.0301
16,ATACCCTC,-0.0637
17,CCGCATTA,0.0289
18,CGGCGAAC,0.0381
19,TGATGCCA,0.121
20,CGGTTGTA,-0.121
21,ATTCAAAA,0.194
22,CCGGATAG,-0.0305
23,AATGCAGC,-0.0494
24,GGGGCATA,-0.184
25,ACCAAAAG,0.00795

row,Sequence,PBM E-score
1,TAATTTCA,0.204
2,AGGCTGCG,-0.206
3,CCTGGGCC,-0.223
4,TCATAAGA,0.00333
5,CGCGGTAC,0.0499
6,TACATCCA,0.123
7,ACCGAGTG,-0.0112
8,GACTCTAA,-0.185
9,AGTATTCA,-0.0356
10,TCATCCCA,0.0819
11,CCAGTAAA,0.00508
12,CGACCGGA,-0.246
13,GTGGAAGA,-0.0229
14,ACTGGCGG,-0.124
15,GTAAGTCA,0.0282
16,CTAGGTGC,-0.0851
17,ACAGAGAA,0.0471
18,CGGCCGAC,0.125
19,TATTGAGA,0.241
20,CCTTTAAG,-0.0765
21,ACCGGCGG,-0.133
22,ACGCCCGA,-0.183
23,CGAAAAAG,0.146
24,AAAATTTA,0.0232
25,GCATCAAC,-0.133

row,Sequence,PBM E-score
1,CCTGTAAG,-0.128
2,ACTTCCCA,0.0193
3,CCGTAACA,0.118
4,CGGCTGGC,-0.243
5,GCGAAAGC,-0.15
6,AGTACAGG,-0.0351
7,ATAATGTC,0.162
8,AGCATTTG,-0.115
9,AAAGAAGG,-0.118
10,ACCAGGGA,-0.0651
11,CCGGGGAG,-0.0831
12,AATCAAGT,-0.0747
13,ACTAGAAT,0.0333
14,AACTATGT,0.0381
15,ATGTAAGA,0.142
16,ATTTGTCA,0.292
17,ACACGACG,0.13
18,ACTTCCAA,-0.121
19,ATGCACAT,0.0932
20,CAAACCGC,-0.0591
21,ACGCGCAA,-0.0721
22,GTGACTCA,-0.0193
23,ACCACCTG,-0.0958
24,GCAGTCAC,0.0632
25,AAGGGCTC,-0.327

row,Sequence,PBM E-score
1,CGATGCCA,-0.286
2,CACTCATA,0.202
3,AATTGTTG,0.0148
4,GATAAAGA,0.13
5,ACAGATTG,-0.0933
6,CAAAGTAA,-0.0698
7,ACCCTTCG,-0.0702
8,ACTTCAAA,0.012
9,AATTTGGA,-0.0236
10,CGATATAA,0.203
11,AGAATTGG,-0.0124
12,CCGGAAAA,-0.0541
13,CCATCCGG,-0.186
14,ACCAATGC,-0.142
15,CTACACAG,-0.176
16,GTAGGCAC,-0.174
17,ACTTTCGG,-0.281
18,AACGATTC,0.163
19,CAAGTCGG,-0.215
20,ACTACAGG,-0.0838
21,CAGAGGGC,-0.202
22,ACTCGGAC,-0.0217
23,ATGACGAA,0.319
24,CTACCAGC,-0.151
25,CCGTGGGC,0.0205

row,Sequence,PBM E-score
1,AGCCAGTC,-0.198
2,AGAAGCGG,-0.235
3,ACTAAGCT,0.191
4,AGACTGCC,-0.109
5,CACCACCG,-0.112
6,AGTATGAA,0.135
7,AGTTTGAG,-0.00798
8,GGCCGTGA,0.253
9,ATAGGGGA,-0.0124
10,GCAGTCGC,-0.0675
11,CTTATAGC,0.0906
12,CATCCAAC,0.0408
13,AGGTACCC,-0.287
14,ATATGCGC,0.176
15,ATATCATA,0.33
16,GACGTTGC,0.106
17,ATGAGGCA,-0.193
18,TAGCTAGA,0.133
19,AAGTACGG,0.181
20,AACCCGGG,-0.24
21,GAGGGTGA,0.137
22,AAGTCCCC,-0.149
23,CATAGTAG,0.0339
24,CTATGAGC,-0.0109
25,CAAACTTG,-0.183

row,Sequence,PBM E-score
1,CAATGCTC,-0.0352
2,ATTGTAAG,-0.194
3,CGGCACCG,-0.0847
4,AATGCCGC,0.029
5,CACGACTC,0.128
6,GAACAACC,-0.0257
7,CTTGCTTA,-0.0929
8,ATCCACCA,-0.0729
9,CAAGAGCA,-0.279
10,CCACGCAA,0.0526
11,GAAGAGCA,-0.194
12,ACGCGCAC,-0.0254
13,TCAACAAA,0.0431
14,AACACATA,0.0739
15,GTGCCTGA,-0.13
16,GAAAAGGC,-0.0258
17,TACACCGA,-0.287
18,AACCCGGT,-0.0159
19,ATATGCCA,0.162
20,AAACGATG,0.291
21,ATATGGGC,0.0186
22,TAGCTGCA,-0.105
23,ACACGGTA,0.16
24,ACAACGGT,0.0626
25,AATCCTGC,-0.14

# 3 entries from above, bar-delimited:
row | Sequence | PBM E-score
17 | TACACCGA | -0.287
18 | AACCCGGT | -0.0159
19 | ATATGCCA | 0.162

# Additional entries

row,Sequence,PBM E-score
1,TACAGATA,0.0671
2,AAAGAGAT,-0.0264
3,CCACCGAC,-0.307
4,TAGTTGGA,-0.199
5,TCGGCTAA,0.0367
6,AGACGGTA,-0.0476
7,AGAATGAA,0.144
8,ACTCGAGT,-0.0159
9,CACCCAGC,-0.252
10,AACCCGTT,-0.16
11,GCTCAGAC,-0.189
12,AATTGGGG,-0.161
13,AAAACGGG,0.157
14,AGGCAGCC,-0.22
15,CGCCTCCC,-0.333
16,GAAGCTCA,0.0423
17,CCAGAGCA,-0.0849
18,ACGATTAC,0.177
19,GATTAGGC,0.18

# From the supplement of paper PMC3334620
